The results in this text go back to patent publication US20260193376A1.

Positions count from the first letter of the chain named. No constants are given. Whether binding was seen depends on the method and setting. Binding can be weak; no strength is given.

The target of experiment [1] is human EGR-CK-inhibited Factor IXa Gla-domainless (wild-type) (human). Kind of experiment: co-crystallization, 1:1 molar ratio.
Experiment [2] shares this target. Kind of experiment: size exclusion chromatography of the 1:1 complex and co-crystallization.

B1: Fab fragment corresponding to mAb01-9994 (Fab, V domains shown)
VH: EVQLVESGGGLVQPGRSLRLSCAASGFTFHDYAMHWVRQVPGKGLEWVSGISWKGDIGGYVDSVKGRFTISRDNEKNSLYLQMNSLRAEDTALYYCVKSYGSGSFYNAFDSWGQGTLVTVSS
VL: DIQMTQSPSTLSASVGDRVTITCRASQSISSWLAWYQQKPGKAPKFLIYKASRLDRGTPSRFSGSGSGTEFSLTISSLQPDDFATYYCLEYSSYIRTFGQGTKVEIK
For B1, in experiment [1], the binding result is on record as “binds”.

B2: Fab fragment corresponding to mAb01-9985 (Fab, V domains shown)
VH: B1 VH with K54R, D62K, E75A
VL: B1 VL with R53K, D55E
Take B2: the binding entry in experiment [2] was “binds”.

B3: Fab fragment corresponding to mAb01-9933 (Fab, V domains shown)
VH: B1 VH with R19K, H30D, E75A, M83L, V97A
VL: B1 VL with V15A, R18E, F46L, R53K, T58V, S77D
For the molecule B3, in experiment [1], the binding result is reported as “binds”.
